Data from the supplement of paper PMC11006884.
The list shows a part of the results, in another mix than the full data.

Protein sequences, listed by entry. Tags and fused reporters are not part of them. Lines headed by an entry give the natural chain unless they say otherwise; changes in a name come on top.
UniProt Q9UK45: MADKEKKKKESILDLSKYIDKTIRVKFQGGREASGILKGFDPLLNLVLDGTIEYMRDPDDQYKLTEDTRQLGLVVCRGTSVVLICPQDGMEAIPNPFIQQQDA
UniProt Q9UJF2: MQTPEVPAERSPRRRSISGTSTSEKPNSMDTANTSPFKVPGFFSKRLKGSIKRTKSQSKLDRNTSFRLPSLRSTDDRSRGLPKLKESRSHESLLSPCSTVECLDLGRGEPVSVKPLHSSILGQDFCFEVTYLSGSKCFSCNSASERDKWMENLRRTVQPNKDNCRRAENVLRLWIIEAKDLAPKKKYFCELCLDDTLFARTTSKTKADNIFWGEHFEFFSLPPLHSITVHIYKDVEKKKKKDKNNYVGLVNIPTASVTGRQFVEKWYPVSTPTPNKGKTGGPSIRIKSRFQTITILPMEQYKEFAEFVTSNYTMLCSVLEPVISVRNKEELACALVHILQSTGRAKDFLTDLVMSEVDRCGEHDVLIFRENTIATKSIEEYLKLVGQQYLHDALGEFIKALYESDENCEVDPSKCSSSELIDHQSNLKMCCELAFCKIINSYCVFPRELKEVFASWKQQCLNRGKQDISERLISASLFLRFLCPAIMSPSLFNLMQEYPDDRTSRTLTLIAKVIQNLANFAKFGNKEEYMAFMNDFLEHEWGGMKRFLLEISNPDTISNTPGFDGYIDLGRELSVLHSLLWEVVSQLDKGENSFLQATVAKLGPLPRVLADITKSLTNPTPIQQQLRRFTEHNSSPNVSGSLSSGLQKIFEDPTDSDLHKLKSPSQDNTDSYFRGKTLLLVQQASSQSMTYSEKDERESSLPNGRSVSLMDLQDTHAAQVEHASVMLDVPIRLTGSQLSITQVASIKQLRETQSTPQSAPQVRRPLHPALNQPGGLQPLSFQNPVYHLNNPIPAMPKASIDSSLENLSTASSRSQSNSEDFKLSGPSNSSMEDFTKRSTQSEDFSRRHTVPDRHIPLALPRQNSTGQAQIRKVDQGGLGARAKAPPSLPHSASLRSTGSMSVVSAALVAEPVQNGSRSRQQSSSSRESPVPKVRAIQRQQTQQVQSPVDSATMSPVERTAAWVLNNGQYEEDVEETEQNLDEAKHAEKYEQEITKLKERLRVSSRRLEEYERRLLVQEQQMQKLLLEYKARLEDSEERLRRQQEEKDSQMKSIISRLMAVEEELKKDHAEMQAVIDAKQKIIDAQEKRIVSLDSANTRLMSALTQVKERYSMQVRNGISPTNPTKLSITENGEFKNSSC
UniProt Q9UHW5, whole entry, looked up: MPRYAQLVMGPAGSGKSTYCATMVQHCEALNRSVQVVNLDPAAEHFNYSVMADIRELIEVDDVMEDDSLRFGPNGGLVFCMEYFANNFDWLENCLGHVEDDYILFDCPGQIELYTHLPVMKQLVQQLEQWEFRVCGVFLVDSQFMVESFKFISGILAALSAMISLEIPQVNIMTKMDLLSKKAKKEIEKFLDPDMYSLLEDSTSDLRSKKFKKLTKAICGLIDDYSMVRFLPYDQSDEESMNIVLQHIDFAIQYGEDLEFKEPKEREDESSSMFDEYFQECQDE
UniProt Q9UHQ4: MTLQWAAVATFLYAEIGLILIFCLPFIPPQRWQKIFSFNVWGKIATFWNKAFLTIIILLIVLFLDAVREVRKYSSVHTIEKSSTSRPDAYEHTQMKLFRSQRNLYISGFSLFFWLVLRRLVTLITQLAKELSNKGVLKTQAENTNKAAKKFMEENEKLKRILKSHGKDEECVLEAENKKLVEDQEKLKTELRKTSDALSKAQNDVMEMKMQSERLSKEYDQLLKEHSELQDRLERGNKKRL
UniProt Q9UPN7: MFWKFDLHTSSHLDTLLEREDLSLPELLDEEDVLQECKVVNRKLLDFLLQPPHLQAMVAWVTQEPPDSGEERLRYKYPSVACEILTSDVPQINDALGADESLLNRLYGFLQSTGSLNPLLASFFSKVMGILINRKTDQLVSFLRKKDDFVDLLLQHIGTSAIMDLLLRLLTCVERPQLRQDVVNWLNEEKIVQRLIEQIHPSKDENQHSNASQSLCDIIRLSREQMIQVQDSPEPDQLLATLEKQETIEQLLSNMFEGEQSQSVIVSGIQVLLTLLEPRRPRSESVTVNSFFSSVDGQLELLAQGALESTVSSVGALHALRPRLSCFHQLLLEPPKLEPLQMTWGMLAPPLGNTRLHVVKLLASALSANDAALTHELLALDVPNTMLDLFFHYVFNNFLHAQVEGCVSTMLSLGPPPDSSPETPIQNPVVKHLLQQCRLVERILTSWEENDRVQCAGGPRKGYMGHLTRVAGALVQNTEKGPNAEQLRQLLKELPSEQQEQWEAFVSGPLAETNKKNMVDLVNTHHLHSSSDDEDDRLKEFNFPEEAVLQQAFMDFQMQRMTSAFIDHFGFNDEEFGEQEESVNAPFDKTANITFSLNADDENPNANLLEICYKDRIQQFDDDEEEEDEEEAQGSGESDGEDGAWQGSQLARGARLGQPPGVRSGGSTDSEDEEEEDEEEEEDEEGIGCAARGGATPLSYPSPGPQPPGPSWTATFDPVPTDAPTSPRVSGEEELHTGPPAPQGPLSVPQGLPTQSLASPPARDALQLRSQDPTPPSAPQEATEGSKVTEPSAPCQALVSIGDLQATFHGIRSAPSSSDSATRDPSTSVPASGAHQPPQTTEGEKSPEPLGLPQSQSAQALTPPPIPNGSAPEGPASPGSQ
UniProt Q9ULT8: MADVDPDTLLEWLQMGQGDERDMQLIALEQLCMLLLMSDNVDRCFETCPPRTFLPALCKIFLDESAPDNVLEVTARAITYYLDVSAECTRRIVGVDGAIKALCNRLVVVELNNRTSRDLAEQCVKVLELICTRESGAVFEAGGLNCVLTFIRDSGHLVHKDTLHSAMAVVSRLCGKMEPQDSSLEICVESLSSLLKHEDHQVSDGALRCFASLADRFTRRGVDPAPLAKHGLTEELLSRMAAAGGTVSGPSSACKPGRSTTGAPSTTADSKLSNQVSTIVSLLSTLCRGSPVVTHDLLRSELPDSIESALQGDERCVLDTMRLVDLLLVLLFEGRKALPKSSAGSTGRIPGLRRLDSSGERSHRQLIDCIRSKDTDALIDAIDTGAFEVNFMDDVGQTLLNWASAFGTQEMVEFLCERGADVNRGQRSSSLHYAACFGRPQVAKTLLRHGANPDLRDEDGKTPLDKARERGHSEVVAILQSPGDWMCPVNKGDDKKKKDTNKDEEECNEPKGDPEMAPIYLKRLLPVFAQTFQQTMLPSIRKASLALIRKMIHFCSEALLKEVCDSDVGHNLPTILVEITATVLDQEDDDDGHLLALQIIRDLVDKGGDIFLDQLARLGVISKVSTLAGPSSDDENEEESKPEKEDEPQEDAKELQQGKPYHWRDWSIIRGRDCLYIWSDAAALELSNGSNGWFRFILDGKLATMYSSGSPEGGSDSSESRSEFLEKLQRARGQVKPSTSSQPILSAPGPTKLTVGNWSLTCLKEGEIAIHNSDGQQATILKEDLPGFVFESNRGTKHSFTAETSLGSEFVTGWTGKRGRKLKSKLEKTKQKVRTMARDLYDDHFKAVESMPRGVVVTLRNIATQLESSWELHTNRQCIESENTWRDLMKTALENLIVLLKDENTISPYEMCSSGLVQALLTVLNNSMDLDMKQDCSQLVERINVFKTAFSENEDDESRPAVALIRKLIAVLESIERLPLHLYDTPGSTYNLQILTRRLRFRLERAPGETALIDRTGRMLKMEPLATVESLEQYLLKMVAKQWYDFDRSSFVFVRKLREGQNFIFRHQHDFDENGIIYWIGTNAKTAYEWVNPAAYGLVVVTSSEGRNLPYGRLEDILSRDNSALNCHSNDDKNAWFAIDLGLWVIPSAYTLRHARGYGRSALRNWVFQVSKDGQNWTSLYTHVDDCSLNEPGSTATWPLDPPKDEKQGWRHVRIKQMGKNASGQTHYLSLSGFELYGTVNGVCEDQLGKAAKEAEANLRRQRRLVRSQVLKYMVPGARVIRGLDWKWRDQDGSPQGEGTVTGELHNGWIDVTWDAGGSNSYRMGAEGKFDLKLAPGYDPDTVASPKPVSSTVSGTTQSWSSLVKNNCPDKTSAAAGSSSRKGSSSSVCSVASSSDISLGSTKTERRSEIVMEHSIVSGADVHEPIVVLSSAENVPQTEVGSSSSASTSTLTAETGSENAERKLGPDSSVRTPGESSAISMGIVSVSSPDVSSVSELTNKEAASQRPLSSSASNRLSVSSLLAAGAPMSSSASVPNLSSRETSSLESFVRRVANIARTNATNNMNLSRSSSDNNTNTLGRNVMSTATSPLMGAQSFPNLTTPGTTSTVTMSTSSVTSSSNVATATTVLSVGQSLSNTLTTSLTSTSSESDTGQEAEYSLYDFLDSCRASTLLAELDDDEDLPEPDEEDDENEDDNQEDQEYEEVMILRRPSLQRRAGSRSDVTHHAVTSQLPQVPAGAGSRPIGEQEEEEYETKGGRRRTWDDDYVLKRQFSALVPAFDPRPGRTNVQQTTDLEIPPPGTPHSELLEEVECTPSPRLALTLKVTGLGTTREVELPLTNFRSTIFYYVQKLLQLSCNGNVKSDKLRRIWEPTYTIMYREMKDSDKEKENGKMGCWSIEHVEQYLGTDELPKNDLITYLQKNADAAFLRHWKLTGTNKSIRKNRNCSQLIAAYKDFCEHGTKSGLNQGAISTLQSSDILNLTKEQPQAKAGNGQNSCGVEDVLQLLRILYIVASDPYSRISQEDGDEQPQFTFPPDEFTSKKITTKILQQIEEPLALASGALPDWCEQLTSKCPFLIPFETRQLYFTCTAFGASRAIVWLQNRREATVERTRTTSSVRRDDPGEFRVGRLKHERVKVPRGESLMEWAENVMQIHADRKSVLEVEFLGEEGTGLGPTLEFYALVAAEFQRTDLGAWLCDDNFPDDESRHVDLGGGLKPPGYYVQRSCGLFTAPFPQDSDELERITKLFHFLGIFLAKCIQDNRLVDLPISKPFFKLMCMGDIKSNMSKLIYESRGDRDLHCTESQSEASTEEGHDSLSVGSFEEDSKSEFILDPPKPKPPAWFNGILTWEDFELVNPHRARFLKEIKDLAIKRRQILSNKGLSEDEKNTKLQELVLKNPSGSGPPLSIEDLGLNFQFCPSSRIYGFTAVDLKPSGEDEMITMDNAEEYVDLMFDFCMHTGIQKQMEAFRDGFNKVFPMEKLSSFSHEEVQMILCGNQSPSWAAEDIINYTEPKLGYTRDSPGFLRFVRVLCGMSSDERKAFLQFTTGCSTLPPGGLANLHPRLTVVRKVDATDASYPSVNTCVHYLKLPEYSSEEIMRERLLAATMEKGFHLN
UniProt Q9UKN8: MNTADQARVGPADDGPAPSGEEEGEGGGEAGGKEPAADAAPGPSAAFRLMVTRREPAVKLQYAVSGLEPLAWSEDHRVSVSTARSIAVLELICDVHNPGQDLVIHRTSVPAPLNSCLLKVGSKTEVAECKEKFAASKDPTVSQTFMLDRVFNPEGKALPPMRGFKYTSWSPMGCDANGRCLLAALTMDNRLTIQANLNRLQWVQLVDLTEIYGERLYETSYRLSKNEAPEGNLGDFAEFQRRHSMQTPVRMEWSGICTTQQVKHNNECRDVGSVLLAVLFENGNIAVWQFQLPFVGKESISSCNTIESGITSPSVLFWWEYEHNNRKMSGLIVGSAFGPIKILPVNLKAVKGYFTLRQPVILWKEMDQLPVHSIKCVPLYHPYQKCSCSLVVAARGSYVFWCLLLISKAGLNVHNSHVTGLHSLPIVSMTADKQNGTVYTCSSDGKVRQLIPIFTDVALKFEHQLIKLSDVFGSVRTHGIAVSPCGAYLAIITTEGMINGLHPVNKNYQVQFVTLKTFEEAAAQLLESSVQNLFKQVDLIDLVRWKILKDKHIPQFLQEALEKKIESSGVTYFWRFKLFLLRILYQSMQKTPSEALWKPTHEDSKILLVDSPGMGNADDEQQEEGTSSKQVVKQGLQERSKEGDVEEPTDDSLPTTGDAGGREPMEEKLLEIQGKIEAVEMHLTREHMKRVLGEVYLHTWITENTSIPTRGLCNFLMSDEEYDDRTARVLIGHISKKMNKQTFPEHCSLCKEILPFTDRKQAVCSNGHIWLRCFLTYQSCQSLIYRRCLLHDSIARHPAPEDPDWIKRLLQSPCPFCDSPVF
UniProt Q9Y277: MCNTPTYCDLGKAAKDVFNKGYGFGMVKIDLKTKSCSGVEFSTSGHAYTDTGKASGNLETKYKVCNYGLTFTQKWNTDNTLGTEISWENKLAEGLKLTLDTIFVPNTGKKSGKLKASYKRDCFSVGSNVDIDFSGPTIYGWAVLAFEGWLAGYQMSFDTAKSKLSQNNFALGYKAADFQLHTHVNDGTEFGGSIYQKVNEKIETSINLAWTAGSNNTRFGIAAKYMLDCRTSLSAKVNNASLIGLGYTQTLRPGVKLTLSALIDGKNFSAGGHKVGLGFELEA

compound: COC(=O)C#Cc1ccccc1 [methyl 3-phenylpropiolate]; experiment: log2 ratio of iodoacetamide-alkyne labeling of the cysteine site, DMSO over compound (competition); higher = stronger covalent engagement of the cysteine by the compound, active = 1 or more; settings: 500 µM; treatment time 1 h; system: HEK293T cell lysate
How it was run: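 HEK293T lysate (2 mg/mL) was treated with DMSO or electrophile (500 µM, 1 h, ambient temperature), then iodoacetamide alkyne (1 h), clicked to sCIP-TMT reagents, pooled, trypsin-digested overnight at 37 °C, streptavidin-enriched and acid-eluted. Peptides were run on Orbitrap Eclipse LC-MS/MS with FAIMS and quantified in FragPipe. The log2 competition ratio per cysteine is mean control-channel over mean compound-channel reporter intensity. Duplicate channels and three replicates were used, and cysteines quantified in only one replicate were excluded.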

Row | Target | log2 ratio of iodoacetamide-alkyne labeling
1 | MRPS7 C152 (UniProt Q9Y2R9) | inactive: -0.102
2 | LSM7 C85 (UniProt Q9UK45) | inactive: 0.29
3 | RASAL2 C360 (UniProt Q9UJF2) | inactive: 0.112
4 | GPN3 C219 (UniProt Q9UHW5) | inactive: 0.0998
5 | BCAP29 C171 (UniProt Q9UHQ4) | active: 1.1
6 | RUVBL2 C227 (UniProt Q9Y230) | inactive: 0.198
7 | UniProt Q9UPN7_C795 | inactive: 0.136
8 | HERC5 C424 (UniProt Q9UII4) | inactive: 0.565
9 | NCKAP1 C618 (UniProt Q9Y2A7) | inactive: 0.408
10 | UniProt Q9UPN4_C218 | inactive: 0.212
11 | DERA C118 (UniProt Q9Y315) | inactive: 0.275
12 | HECTD1 C2224 (UniProt Q9ULT8) | inactive: 0.302
13 | UniProt Q9UPN7_C689 | inactive: 0.174
14 | GTF3C4 C814 (UniProt Q9UKN8) | inactive: 0.219
15 | VDAC3 C36 (UniProt Q9Y277) | inactive: 0.628

Retrieved one by one from above:
Row | Target | log2 ratio of iodoacetamide-alkyne labeling
12 | HECTD1 C2224 (UniProt Q9ULT8) | inactive: 0.302
11 | DERA C118 (UniProt Q9Y315) | inactive: 0.275
